Binding data for two molecules are collected here from paper doi:10.1101/2024.09.17.613393.

No constants are given. Whether binding was seen depends on the method and setting. In cells and extracts the contact can be indirect. Some entries that bind do so weakly or less than the wild type. For part of these data: Where a sequence is shown, tags or fusion partners need not be part of it.

The target of test [1] is T1, mouse ZBP1 (mZBP1) expressed in HT29 cells (mouse), Q9QY24.
T1 chain: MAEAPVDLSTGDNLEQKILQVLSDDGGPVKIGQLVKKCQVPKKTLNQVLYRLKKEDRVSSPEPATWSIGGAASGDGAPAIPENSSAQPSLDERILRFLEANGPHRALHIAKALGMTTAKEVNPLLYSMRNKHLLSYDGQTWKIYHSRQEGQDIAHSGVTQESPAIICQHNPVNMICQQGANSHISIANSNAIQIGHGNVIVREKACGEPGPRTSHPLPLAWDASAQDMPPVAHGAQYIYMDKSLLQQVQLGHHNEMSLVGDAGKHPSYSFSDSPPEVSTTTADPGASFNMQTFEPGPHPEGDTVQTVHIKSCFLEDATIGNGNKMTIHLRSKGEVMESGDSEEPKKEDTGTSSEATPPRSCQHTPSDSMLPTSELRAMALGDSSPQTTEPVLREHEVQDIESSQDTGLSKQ
Nature of the test: co-IP. The settings on record: remark: other sources report otherwise.

Test [2] concerns the target T2, FLAG-tagged human ZBP1 (Flag-hZBP1) (human), Q9H171.
T2 chain: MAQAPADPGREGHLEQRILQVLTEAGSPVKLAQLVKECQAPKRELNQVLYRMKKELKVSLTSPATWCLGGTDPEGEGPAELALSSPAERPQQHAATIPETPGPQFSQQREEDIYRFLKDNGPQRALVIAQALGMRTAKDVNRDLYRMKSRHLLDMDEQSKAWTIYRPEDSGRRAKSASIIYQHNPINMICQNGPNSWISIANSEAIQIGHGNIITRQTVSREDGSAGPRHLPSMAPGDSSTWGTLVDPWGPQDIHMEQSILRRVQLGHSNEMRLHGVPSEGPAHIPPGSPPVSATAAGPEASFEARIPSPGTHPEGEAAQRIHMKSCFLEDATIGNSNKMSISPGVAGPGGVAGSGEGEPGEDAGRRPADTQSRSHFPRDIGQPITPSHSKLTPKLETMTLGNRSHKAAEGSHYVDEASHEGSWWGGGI
The test can be described thus: co-IP. The note with it: remark: other sources report otherwise.

B1: RIPK3 (human, endogenous), Q9Y572 1-518 (protein)
chain: MSCVKLWPSGAPAPLVSIEELENQELVGKGGFGTVFRAQHRKWGYDVAVKIVNSKAISREVKAMASLDNEFVLRLEGVIEKVNWDQDPKPALVTKFMENGSLSGLLQSQCPRPWPLLCRLLKEVVLGMFYLHDQNPVLLHRDLKPSNVLLDPELHVKLADFGLSTFQGGSQSGTGSGEPGGTLGYLAPELFVNVNRKASTASDVYSFGILMWAVLAGREVELPTEPSLVYEAVCNRQNRPSLAELPQAGPETPGLEGLKELMQLCWSSEPKDRPSFQECLPKTDEVFQMVENNMNAAVSTVKDFLSQLRSSNRRFSIPESGQGGTEMDGFRRTIENQHSRNDVMVSEWLNKLNLEEPPSSVPKKCPSLTKRSRAQEEQVPQAWTAGTSSDSMAQPPQTPETSTFRNQMPSPTSTGTPSPGPRGNQGAERQGMNWSCRTPEPNPVTGRPLVNIYNCSGVQVGDNNYLTMQQTTALPTWGLAPSGKGRGLQHPPPVGSQEGPKDPEAWSRPQGWYNHSGK
Turning to B1, the binding result in test [1] was “binds”.

B2: RIPK1 (human, endogenous), Q13546 1-671 (protein)
chain: MQPDMSLNVIKMKSSDFLESAELDSGGFGKVSLCFHRTQGLMIMKTVYKGPNCIEHNEALLEEAKMMNRLRHSRVVKLLGVIIEEGKYSLVMEYMEKGNLMHVLKAEMSTPLSVKGRIILEIIEGMCYLHGKGVIHKDLKPENILVDNDFHIKIADLGLASFKMWSKLNNEEHNELREVDGTAKKNGGTLYYMAPEHLNDVNAKPTEKSDVYSFAVVLWAIFANKEPYENAICEQQLIMCIKSGNRPDVDDITEYCPREIISLMKLCWEANPEARPTFPGIEEKFRPFYLSQLEESVEEDVKSLKKEYSNENAVVKRMQSLQLDCVAVPSSRSNSATEQPGSLHSSQGLGMGPVEESWFAPSLEHPQEENEPSLQSKLQDEANYHLYGSRMDRQTKQQPRQNVAYNREEERRRRVSHDPFAQQRPYENFQNTEGKGTAYSSAASHGNAVHQPSGLTSQPQVLYQNNGLYSSHGFGTRPLDPGTAGPRVWYRPIPSHMPSLHNIPVPETNYLGNTPTMPFSSLPPTDESIKYTIYNSTGIQIGAYNYMEIGGTSSSLLDSTNTNFKEEPAAKYQAIFDNTTSLTDKHLDPIRENLGKHWKNCARKLGFTQSQIDEIDHDYERDGLKEKVYQMLQKWVMREGIKGATVGKLAQALHQCSRIDLLSSLIYVSQN
As for B2, the binding result in test [1] and in test [2] was “binds” in each case.
